According to patent publication EP1088898A1:
No constants are given. Whether binding was seen depends on the method and setting. Some results given as binding are weak or reduced against the parent protein; the word gives no strength.

The chains behind the UniProt entries cited, without tags or fusion partners.
UniProt P20339: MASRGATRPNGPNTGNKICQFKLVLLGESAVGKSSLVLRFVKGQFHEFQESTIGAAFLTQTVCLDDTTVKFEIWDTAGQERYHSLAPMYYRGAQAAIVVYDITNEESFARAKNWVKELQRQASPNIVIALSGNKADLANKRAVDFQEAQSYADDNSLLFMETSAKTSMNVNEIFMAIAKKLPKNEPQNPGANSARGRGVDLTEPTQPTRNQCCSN
UniProt Q15075: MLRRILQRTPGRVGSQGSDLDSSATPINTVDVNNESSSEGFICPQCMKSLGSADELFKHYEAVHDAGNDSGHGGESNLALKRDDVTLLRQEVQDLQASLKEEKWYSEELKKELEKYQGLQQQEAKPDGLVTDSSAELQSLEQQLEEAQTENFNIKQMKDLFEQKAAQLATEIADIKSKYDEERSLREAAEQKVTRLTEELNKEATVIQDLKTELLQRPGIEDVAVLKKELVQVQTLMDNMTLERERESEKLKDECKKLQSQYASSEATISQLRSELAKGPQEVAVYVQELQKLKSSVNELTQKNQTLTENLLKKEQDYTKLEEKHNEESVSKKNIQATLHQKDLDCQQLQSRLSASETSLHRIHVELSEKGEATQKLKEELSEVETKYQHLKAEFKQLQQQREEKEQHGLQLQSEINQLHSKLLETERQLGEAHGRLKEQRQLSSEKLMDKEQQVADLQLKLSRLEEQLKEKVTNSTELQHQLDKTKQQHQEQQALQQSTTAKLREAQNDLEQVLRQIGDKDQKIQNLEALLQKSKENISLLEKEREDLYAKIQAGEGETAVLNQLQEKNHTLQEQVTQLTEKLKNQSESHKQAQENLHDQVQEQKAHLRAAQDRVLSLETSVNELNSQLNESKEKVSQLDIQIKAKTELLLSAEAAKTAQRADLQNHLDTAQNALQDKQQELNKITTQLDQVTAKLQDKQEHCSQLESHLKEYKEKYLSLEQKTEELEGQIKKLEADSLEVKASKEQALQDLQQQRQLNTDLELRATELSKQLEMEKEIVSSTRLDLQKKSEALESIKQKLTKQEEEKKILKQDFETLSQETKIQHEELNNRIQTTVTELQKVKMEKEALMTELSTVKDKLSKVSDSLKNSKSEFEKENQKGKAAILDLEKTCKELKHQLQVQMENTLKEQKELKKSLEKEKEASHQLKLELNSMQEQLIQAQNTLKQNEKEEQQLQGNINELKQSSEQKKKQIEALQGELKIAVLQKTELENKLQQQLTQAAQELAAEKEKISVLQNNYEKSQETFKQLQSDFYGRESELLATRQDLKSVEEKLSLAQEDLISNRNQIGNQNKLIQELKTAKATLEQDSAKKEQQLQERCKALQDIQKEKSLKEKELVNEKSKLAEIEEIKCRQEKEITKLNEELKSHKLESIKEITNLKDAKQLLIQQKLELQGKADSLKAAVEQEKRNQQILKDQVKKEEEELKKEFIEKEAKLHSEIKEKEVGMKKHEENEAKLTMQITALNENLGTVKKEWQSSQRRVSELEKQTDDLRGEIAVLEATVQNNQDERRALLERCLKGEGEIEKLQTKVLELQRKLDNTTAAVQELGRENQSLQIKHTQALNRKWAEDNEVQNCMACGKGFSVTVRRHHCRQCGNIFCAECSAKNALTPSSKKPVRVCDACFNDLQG

Molecular target: GST-Rab5 (UniProt P20339)
Test: affinity chromatography on GST-Rab5:GDP:Mg2+:AlF3 glutathione sepharose column

For EEA1 (from UniProt Q15075 1-1411), the binding was “binds”.

B1: human Rabankyrin-5 (protein)
chain: MAEEEVAKLEKHLMLLRQEYVKLQKKLAETEKRCALLAAQANKESSSESFISRLLAIVADLYEQEQYSDLKIKVGDRHISAHKFVLAARSDSWSLANLSSTKELDLSDANPEVTMTMLRWIYTDELEFREDDVFLTELMKLANRFQLQLLRERCEKGVMSLVNVRNCIRFYQTAEELNASTLMNYCAEIIASHWDDLRKEDFSSMSAQLLYKMIKSKTEYPLHKAIKVEREDVVFLYLIEMDSQLPGKLNEADHNGDLALDLALSRRLESIATTLVSHKADVDMVDKSGWSLLHKGIQRGDLFAATFLIKNGAFVNAATLGAQETPLHLVALYSSKKHSADVMSEMAQIAEALLQAGANPNMQDSKGRTPLHVSIMAGNEYVFSQLLQCKQLDLELKDHEGSTALWLAVQHITVSSDQSVNPFEDVPVVNGTSFDENSFAARLIQRGSHTDAPDTATGNCLLQRAAGAGNEAAALFLATNGAHVNHRNKWGETPLHTACRHGLANLTAELLQQGANPNLQTEEALPLPKEAASLTSLADSVHLQTPLHMAIAYNHPDVVSVILEQKANALHATNNLQIIPDFSLKDSRDQTVLGLALWTGMHTIAAQLLGSGAAINDTMSDGQTLLHMAIQRQDSKSALFLLEHQADINVRTQDGETALQLAIRNQLPLVVDAICTRGADMSVPDEKGNPPLWLALANNLEDIASTLVRHGCDATCWGPGPGGCLQTLLHRAIDENNEPTACFLIRSGCDVNSPRQPGANGEGEEEARDGQTPLHLAASWGLEETVQCLLEFGANVNAQDAEGRTPIHVAISSQHGVIIQLLVSHPDIHLNVRDRQGLTPFACAMTFKNNKSAEAILKRESGAAEQVDNKGRNFLHVAVQNSDIESVLFLISVHANVNSRVQDASKLTPLHLAVQAGSEIIVRNLLLAGAKVNELTKHRQTALHLAAQQDLPTICSVLLENGVDFAAVDENGNNALHLAVMHGRLNNIRVLLTECTVDAEAFNLRGQSPLHILGQYGKENAAAIFDLFLECMPGYPLDKPDADGSTVLLLAYMKGNANLCRAIVRSGARLGVNNNQGVNIFNYQVATKQLLFRLLDMLSKEPPWCDGSYCYECTARFGVTTRKHHCRHCGRLLCHKCSTKEIPIIKFDLNKPVRVCNICFDVLTLGGVS
With B1 the binding was “binds”.
